Results reported in PubChem BioAssay AID540276 (National Center for Advancing Translational Sciences (NCATS), 2011).
“And” between values parts separate entries of the source, which are not always exact repeats. Equal entries are not always repeated. In all, about 300,000 compounds went through this assay and about 5,400 (1.8%) were called active. The shares of active, inactive and inconclusive entries below differ from those in the screen. Calls follow the shape of the full dose curve; tested in HEK293 cells. Where the call is inconclusive, the potency comes from a doubtful curve fit.

Assay: qHTS for inhibitors of binding or entry into cells for Marburg Virus
Conditions: Marburg virus pseudotyped entry inhibition, cell reporter; series mostly up to 37.8 µM
Potency is read from the fitted curve at half-maximal effect.

| Structure (SMILES) | Potency |
| --- | --- |
| Cc1csc2sc(-c3ccnc(SCC(=O)NCc4ccccc4)n3)c(C)c12 | inconclusive: 7.08 µM [inhibitor, full curve, poor fit] |
| Cc1nc(NC(=O)c2ccncc2)sc1C(=O)N(C)C | inactive |
| CCOC(=O)N1CCN(C(=O)c2ccc3nc(C)sc3c2)CC1 | inactive |
| CCOCCCNC(=O)Cn1cnc2c(cnn2-c2ccc(C)c(C)c2)c1=O | inconclusive: 0.891 µM [inhibitor, partial curve, poor fit] |
| N#C/C(=C\c1cccn1-c1ccccc1)C(=O)NC1CCCCC1 | inconclusive: 6.31 µM [inhibitor, single point] |
| COc1ccc(CCNC2CC(=O)N(CCc3ccccc3)C2=O)cc1OC (stereo not drawn) | inactive |
| c1ccc(-c2nc3c(ccc4ccccc43)[nH]2)nc1 | inconclusive: 35.5 µM [inhibitor, single point] |
| O=C(Nc1ccc(N2CCOCC2)c(Cl)c1)c1cc(F)c(F)cc1Cl | inactive |
| CCCOc1ccc(/C(O)=C2\C(=O)C(=O)N(c3ccccn3)C2c2ccccc2F)cc1C (stereo not drawn) | inconclusive: 5.62 µM [activator, partial curve, poor fit] |
| Cc1ccc(C(=O)Nc2cc3ccccc3oc2=O)cc1 | inconclusive: 3.16 µM [inhibitor, full curve, poor fit] |
| Cc1ccc2cc(CN(CC3CCCO3)S(=O)(=O)c3c(C)ccc4nsnc34)c(=O)[nH]c2c1 (stereo not drawn) | inconclusive: 25.9 µM [inhibitor, single point] |
| Cc1nc2ccccc2n1CC(O)COc1ccc(Br)cc1 (stereo not drawn) | inconclusive: 11.2 µM [inhibitor, partial curve] |
| CC(C)N(CC#CC(O)(c1ccccc1)c1ccccc1)CCO | inactive |
| CCOc1ccccc1OCC(=O)NN=C1CCCC(=O)C1 | inconclusive: 31.6 µM [inhibitor, single point] |
| Cc1ccc(C(=O)/C=C\NCc2ccccc2)cc1 | inconclusive: 35.5 µM [inhibitor, single point] |
| O=C(N/N=C/C=C/c1ccco1)/C(=C/c1ccccc1)NC(=O)c1ccccc1 | inactive |
| COC(=O)CCCn1c(-c2ccc(C)cc2)c(C)n2c3c(=O)n(C)c(=O)n(C)c3nc12 | inactive |
| CN(C)CCNC(=S)Nc1cccc(Cl)c1 | inconclusive: 23.1 µM [inhibitor, single point] |
| Cc1cc(N2C(=O)C3C4C=CC(C4)C3C2=O)no1 (stereo not drawn) | inconclusive: 29.1 µM [activator, single point] |
| O=C(CCl)N(Cc1ccccc1)c1ccccc1 | active: 16.4 µM |
| COc1ccc2c(OC)cc(-c3ccccc3)nc2c1 | inactive |
| CCOC(=O)C1=C(CSc2nc(-c3ccccc3)ccc2C#N)OC(N)=C(C#N)C1c1ccc(OC)cc1 (stereo not drawn) | inconclusive: 3.98 µM [activator, single point] |
| CCOCCc1nnc(NC(=O)c2cccc(F)c2)s1 | inconclusive: 17.8 µM [activator, partial curve, poor fit] |

| Structure (SMILES) | Potency |
| --- | --- |
| COCCOc1cc(-n2cccc2)c(Cl)cc1Cl | inconclusive: 5.62 µM [inhibitor, partial curve, poor fit] |
| CCOc1ccc(OCC(=O)Nc2ccc(S(N)(=O)=O)cc2)cc1 | inconclusive: 25.9 µM [activator, partial curve, poor fit] |
| O=C(CN1C(=O)CSc2ccc(S(=O)(=O)N3CCOCC3)cc21)NCc1ccc(F)cc1 | inconclusive: 35.5 µM [inhibitor, single point] |
| COc1ccc(CC(=O)NCCS(=O)(=O)N2CCN(c3ccccc3OC)CC2)cc1 | inconclusive: 35.5 µM [inhibitor, single point] |
| COC(=O)c1ccc(COc2ccccc2/C=N/NS(=O)(=O)c2ccc(C)cc2)cc1 | inconclusive: 18.3 µM [inhibitor, partial curve, poor fit] |
| CCN1CCN(c2ccc(S(=O)(=O)N3CCCCC3)cc2NC(=O)/C=C/c2ccc(F)cc2)CC1 | inconclusive: 22.4 µM [inhibitor, single point] |
| CCN(CC)S(=O)(=O)c1ccc(C(=O)NC(C)(C)C)cc1 | inconclusive: 5.62 µM [inhibitor, single point] |
| COc1cc(S(=O)(=O)N2CCOCC2)ccc1NC(=O)COC(=O)C12CC3CC(CC(C3)C1)C2 | inconclusive: 1.26 µM [inhibitor, single point] |
| CC(C)(C)N(NS(=O)(=O)c1ccc(F)cc1)c1ccccc1 | inconclusive: 0.447 µM [inhibitor, partial curve, poor fit] |
| N=c1sccn1CC(=O)Nc1cc(Cl)ccc1Oc1ccccc1 | inconclusive: 28.2 µM [inhibitor, single point] |
| CC(=O)Nc1ccc(C2=NN(c3ccccc3)C(c3cccs3)C2)cc1 (stereo not drawn) | inactive |
| OC(CCCN1CCCCC1)(c1ccccc1)c1ccccc1 | inconclusive: 29.1 µM [inhibitor, single point] |
| CCCC(=O)c1ccc(N2CCN(C(=O)c3ccccc3Br)CC2)c(F)c1 | inconclusive: 35.5 µM [inhibitor, single point] |
| CCn1c2ccccc2c2nn(C)c(=N)nc21 | inconclusive: 29.1 µM [inhibitor, single point] |
| COc1ccccc1-c1c(C)nn2c(C)c(C(C)=O)cnc12 | inconclusive: 6.31 µM [inhibitor, single point] |
| Cc1ccc2nc(NCCCO)[nH]c2c1 | inconclusive: 4.47 µM [activator, single point] |
| C=CCn1c(SCC(=O)Nc2ccc(OC)cc2)nnc1-c1cnccn1 | inconclusive: 7.08 µM [activator, partial curve, poor fit] |
| COc1cc(/C=N/Nc2ccc(Cl)c(C(=O)O)c2)ccc1OC(=O)c1ccco1 | inconclusive: 35.5 µM [inhibitor, single point] |
| C(#CCN1CCCC1)CC(c1ccccc1)c1ccccc1 | inconclusive: 6.31 µM [inhibitor, full curve, poor fit] |
| CC1(C)Cc2nc(Cl)c(C#N)cc2CO1 | inactive |
| CCN(CC)CC(O)CN(c1ccccc1)S(=O)(=O)c1ccc2ccccc2c1 (stereo not drawn) | inconclusive: 35.5 µM [inhibitor, single point] |
| Cc1cc(SCC(=O)N/N=C/c2ccc(O)c(O)c2)nc2ccccc12 | inconclusive: 11.2 µM [inhibitor, partial curve, poor fit] |
| CC(=O)Nc1ccc(CCCCc2ccc(NC(C)=O)cc2)cc1 | inconclusive: 31.6 µM [activator, single point] |

Structural class, those above containing a carbonyl joined to an NH by a bond outside any ring.

| Structure (SMILES) | Potency |
| --- | --- |
| Cc1csc2sc(-c3ccnc(SCC(=O)NCc4ccccc4)n3)c(C)c12 | inconclusive: 7.08 µM [inhibitor, full curve, poor fit] |
| Cc1nc(NC(=O)c2ccncc2)sc1C(=O)N(C)C | inactive |
| CCOCCCNC(=O)Cn1cnc2c(cnn2-c2ccc(C)c(C)c2)c1=O | inconclusive: 0.891 µM [inhibitor, partial curve, poor fit] |
| N#C/C(=C\c1cccn1-c1ccccc1)C(=O)NC1CCCCC1 | inconclusive: 6.31 µM [inhibitor, single point] |
| O=C(Nc1ccc(N2CCOCC2)c(Cl)c1)c1cc(F)c(F)cc1Cl | inactive |
| Cc1ccc(C(=O)Nc2cc3ccccc3oc2=O)cc1 | inconclusive: 3.16 µM [inhibitor, full curve, poor fit] |
| CCOc1ccccc1OCC(=O)NN=C1CCCC(=O)C1 | inconclusive: 31.6 µM [inhibitor, single point] |
| O=C(N/N=C/C=C/c1ccco1)/C(=C/c1ccccc1)NC(=O)c1ccccc1 | inactive |
| CCOCCc1nnc(NC(=O)c2cccc(F)c2)s1 | inconclusive: 17.8 µM [activator, partial curve, poor fit] |
| CCOc1ccc(OCC(=O)Nc2ccc(S(N)(=O)=O)cc2)cc1 | inconclusive: 25.9 µM [activator, partial curve, poor fit] |
| O=C(CN1C(=O)CSc2ccc(S(=O)(=O)N3CCOCC3)cc21)NCc1ccc(F)cc1 | inconclusive: 35.5 µM [inhibitor, single point] |
| COc1ccc(CC(=O)NCCS(=O)(=O)N2CCN(c3ccccc3OC)CC2)cc1 | inconclusive: 35.5 µM [inhibitor, single point] |
| CCN1CCN(c2ccc(S(=O)(=O)N3CCCCC3)cc2NC(=O)/C=C/c2ccc(F)cc2)CC1 | inconclusive: 22.4 µM [inhibitor, single point] |
| CCN(CC)S(=O)(=O)c1ccc(C(=O)NC(C)(C)C)cc1 | inconclusive: 5.62 µM [inhibitor, single point] |
| COc1cc(S(=O)(=O)N2CCOCC2)ccc1NC(=O)COC(=O)C12CC3CC(CC(C3)C1)C2 | inconclusive: 1.26 µM [inhibitor, single point] |
| N=c1sccn1CC(=O)Nc1cc(Cl)ccc1Oc1ccccc1 | inconclusive: 28.2 µM [inhibitor, single point] |
| CC(=O)Nc1ccc(C2=NN(c3ccccc3)C(c3cccs3)C2)cc1 (stereo not drawn) | inactive |
| C=CCn1c(SCC(=O)Nc2ccc(OC)cc2)nnc1-c1cnccn1 | inconclusive: 7.08 µM [activator, partial curve, poor fit] |
| Cc1cc(SCC(=O)N/N=C/c2ccc(O)c(O)c2)nc2ccccc12 | inconclusive: 11.2 µM [inhibitor, partial curve, poor fit] |
| CC(=O)Nc1ccc(CCCCc2ccc(NC(C)=O)cc2)cc1 | inconclusive: 31.6 µM [activator, single point] |

Later entries.

| Structure (SMILES) | Potency |
| --- | --- |
| N#Cc1ccc(/C=N/NC(=S)Nc2ccc(S(=O)(=O)N3CCOCC3)cc2)cc1 | inactive |
| Cc1cc(N(CCCl)CCCl)ccc1C=NNC(=O)c1cccnc1 | inconclusive: 0.891 µM [inhibitor, full curve, poor fit] |
| Cc1ccc(CN2CCN(/N=C/c3ccc(Cl)c([N+](=O)[O-])c3)CC2)cc1 | inconclusive: 35.5 µM [inhibitor, single point] |
| COC(=O)C1=C(C)NC(=O)NC1c1ccc(N2CCC(c3ccccc3)=N2)cc1 (stereo not drawn) | inconclusive: 22.4 µM [inhibitor, single point] |
| CNc1cc(N2CCCCCC2)ccc1[N+](=O)[O-] | inactive |
| CN(C)C(=O)c1cc(C(=O)c2ccc(F)cc2Cl)c[nH]1 | inconclusive: 11.2 µM [activator, partial curve, poor fit] |
| CC(C)NC(=O)/C(C#N)=C/c1ccc2c(c1)OCCO2 | inactive |
| COc1ccc(-c2noc(CN(C(=O)c3ccccc3Cl)C(C)C)n2)cc1 | inactive |
| COc1cc(C)c(CN2CCN(c3ccccc3)CC2)cc1C | inconclusive: 6.51 µM [activator, single point] |
| CCC(C)N1CCC(Oc2ccc(C(=O)NCc3ccccn3)cc2)CC1 (stereo not drawn) | inconclusive: 35.5 µM [activator, single point] |
| O=S(=O)(c1cccc2nsnc12)N1CCN(c2ccc(F)cc2)CC1 | inconclusive: 5.01 µM [activator, single point] |
| Cc1csc(=Nc2ccccc2)n1CCCN1CCCC1=O | inconclusive: 6.31 µM [inhibitor, partial curve, poor fit] |
| Cc1nn(-c2ccccc2)c(Cl)c1C(=O)NCCCCNC(=O)c1c(C)nn(-c2ccccc2)c1Cl | inconclusive: 7.08 µM [inhibitor, partial curve, poor fit] |
| Cn1cccc1/C=C1\SC(=O)N(CC(=O)Nc2ccc(F)cc2)C1=O | inconclusive: 20.6 µM [inhibitor, partial curve, poor fit] |
| O=C1c2nc3cc(-c4ccco4)[nH]n3c(=O)c2CN1Cc1ccccc1 | inactive |
| COc1ccc(/C=N/NC(=O)c2[nH]c3ccc(Cl)cc3c2-c2ccccc2)c(C(=O)O)c1OC | inactive |
| O=C(Nc1ccccn1)Nc1cccs1 | inconclusive: 16.4 µM [activator, partial curve, poor fit] |
| Cc1ccc(CNC(=O)C2CCN(Cc3nc(-c4ccccc4C)oc3C)CC2)cc1 | inactive |
| Cc1ccn2c(Nc3ccccc3C)c(-c3ccncc3)nc2c1 | inactive |
| CC(C)(C)NC(=O)NC(=O)COC(=O)Cn1c(C(F)(F)F)nc2ccccc21 | inconclusive: 0.231 µM [inhibitor, single point] |
| O=C(CN1CCCCCC1)N/N=C/c1cccc(Cl)c1Cl | inconclusive: 0.224 µM [inhibitor, full curve, poor fit] |
| CCOC(=O)c1c(NC(=O)c2ccc(S(=O)(=O)N3CCOCC3)cc2)sc2c1CCN(C)C2 | inactive and inconclusive: 29.1 µM [inhibitor, single point] |
